According to patent US10864251B2, “Peptides of syndecan-1 for inhibiting angiogenesis” (Wisconsin Alumni Research Foundation, priority 2006, dated 2020):
pIC50: −log10 of the molar value. Some results were stated once for a whole list of compounds, not compound by compound.

Tested on: MDA-MB-231 human mammary carcinoma cells
Type: cell-based
Details: MDA-MB-231, 2 hr assay, FIG. 17; read-out: IC50, attachment and spreading on vitronectin
Protocol: FIGS. 5A-5F—Inhibition of MDA-MB-231 human mammary carcinoma cell attachment and spreading on VN by synstatin82-130. MDA-MB-231 human mammary carcinoma cells, which rely on the αvβ3 integrin for attachment and spreading on VN, were plated on 10 μg/ml VN for 2 hr in the absence of peptide (FIG. 5A) or in the presence of 0.1 (FIG. 5B), 0.3 (FIG. 5C) or 1 μM (FIG. 5D) synstatin82-130. The cells were fixed and stained as in FIG. 2.
FIG. 17—Human SSTN peptides inhibit αvβ3-mediated cell attachment and spreading on vitronectin. MDA-MB-231 human mammary carcinoma cells were allowed to attach and spread on either vitronectin (VN) or fibronectin (FN) during a 2 hr assay in the presence of 0, 0.1, 0.3, 0.5, 1.0 or 30 μM SSTN peptide. […] The two peptides tested are derived either from amino acids 88-121 (hSSTN 88-121) or 89-120 (hSSTN 89-120) of the human Sdc1 sequence. Adhesion to VN, but not FN, is mediated by the αvβ3 integrin on these cells and is disrupted by the human SSTN peptides.
Cell adhesion and spreading assays were performed with modification to the previous procedures (Lebakken and Rapraeger, 1996. Briefly, human plasma vitronectin or fibronectin at 10-30 μg/ml were applied to nitrocellulose-coated ten well slides (Erie Scientific) and incubated for 1-2 h at 37° C. Slides were blocked with 1.0% heat-denatured bovine serum albumin for a minimum of 30 min at 37° C. Cells were detached from the substratum using 5 mM EDTA in Tris-buffered saline and resuspended in HEPES-buffered culture medium containing 0.1% heat-denatured BSA. Cells were plated at a density of 15,000 cells per well and allowed to attach and spread for 2 h prior to fixation in 4% paraformaldehyde in CMF-PBS. For fluorescence microscopy, fixed cells were permeabilized in 0.2% Triton X-100, labeled with rhodamine-conjugated phalloidin and analyzed using fluorescence microscopy. For testing inhibition by recombinant mScd-1ED and synstatin82-130, cells were pre-incubated 10 min before plating in the presence of the inhibitor. […] LM609 was used as a specific block to αvβ3 and P1F6 was used as a specific blocker of αvβ5.
The inventors have tested the adhesion and spreading of MDA-MB-231 mammary carcinoma cells on VN in the presence or absence of synstatin82-130. These cells rely specifically on the active αvβ3 integrin for this adhesion (Beauvais et al., 2004). Recombinant Sdc1 ectodomain (SLED) has been shown by the inventors previously to block spreading of these cells with an IC50 of about 3-10 μM (Beauvais et al., 2004). […] Thus, synstatin82-130 is a specific and effective inhibitor of αvβ3 integrin activation.

## FTSVLPAGEKPEEGEPVLHVEAEPGFTARDKEKEV [SSTN88-122]
  pIC50: 6.52 to 7.00
